Assay results reported in PMC10809768.

Amino acid sequences for entries named in this document (tags omitted).
UniProt Q969H0: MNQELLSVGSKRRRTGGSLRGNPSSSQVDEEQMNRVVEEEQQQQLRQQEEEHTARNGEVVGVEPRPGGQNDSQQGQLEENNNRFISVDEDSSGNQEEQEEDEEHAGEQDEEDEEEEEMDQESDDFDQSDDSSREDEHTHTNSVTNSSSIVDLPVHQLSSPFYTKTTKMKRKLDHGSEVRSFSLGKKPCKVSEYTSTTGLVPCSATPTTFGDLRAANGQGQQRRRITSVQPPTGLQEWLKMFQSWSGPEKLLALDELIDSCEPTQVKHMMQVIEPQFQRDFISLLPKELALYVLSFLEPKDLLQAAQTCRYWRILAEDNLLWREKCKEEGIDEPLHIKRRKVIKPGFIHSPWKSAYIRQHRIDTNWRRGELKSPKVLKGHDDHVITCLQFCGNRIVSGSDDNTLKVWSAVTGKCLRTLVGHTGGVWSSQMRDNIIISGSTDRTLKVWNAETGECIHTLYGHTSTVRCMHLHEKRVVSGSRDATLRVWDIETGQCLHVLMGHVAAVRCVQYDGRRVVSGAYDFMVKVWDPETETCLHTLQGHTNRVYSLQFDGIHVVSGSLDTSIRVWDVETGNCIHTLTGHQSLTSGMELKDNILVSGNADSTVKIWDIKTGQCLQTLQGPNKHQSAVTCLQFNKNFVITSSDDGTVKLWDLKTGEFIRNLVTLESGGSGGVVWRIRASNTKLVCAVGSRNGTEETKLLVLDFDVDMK
UniProt Q14839: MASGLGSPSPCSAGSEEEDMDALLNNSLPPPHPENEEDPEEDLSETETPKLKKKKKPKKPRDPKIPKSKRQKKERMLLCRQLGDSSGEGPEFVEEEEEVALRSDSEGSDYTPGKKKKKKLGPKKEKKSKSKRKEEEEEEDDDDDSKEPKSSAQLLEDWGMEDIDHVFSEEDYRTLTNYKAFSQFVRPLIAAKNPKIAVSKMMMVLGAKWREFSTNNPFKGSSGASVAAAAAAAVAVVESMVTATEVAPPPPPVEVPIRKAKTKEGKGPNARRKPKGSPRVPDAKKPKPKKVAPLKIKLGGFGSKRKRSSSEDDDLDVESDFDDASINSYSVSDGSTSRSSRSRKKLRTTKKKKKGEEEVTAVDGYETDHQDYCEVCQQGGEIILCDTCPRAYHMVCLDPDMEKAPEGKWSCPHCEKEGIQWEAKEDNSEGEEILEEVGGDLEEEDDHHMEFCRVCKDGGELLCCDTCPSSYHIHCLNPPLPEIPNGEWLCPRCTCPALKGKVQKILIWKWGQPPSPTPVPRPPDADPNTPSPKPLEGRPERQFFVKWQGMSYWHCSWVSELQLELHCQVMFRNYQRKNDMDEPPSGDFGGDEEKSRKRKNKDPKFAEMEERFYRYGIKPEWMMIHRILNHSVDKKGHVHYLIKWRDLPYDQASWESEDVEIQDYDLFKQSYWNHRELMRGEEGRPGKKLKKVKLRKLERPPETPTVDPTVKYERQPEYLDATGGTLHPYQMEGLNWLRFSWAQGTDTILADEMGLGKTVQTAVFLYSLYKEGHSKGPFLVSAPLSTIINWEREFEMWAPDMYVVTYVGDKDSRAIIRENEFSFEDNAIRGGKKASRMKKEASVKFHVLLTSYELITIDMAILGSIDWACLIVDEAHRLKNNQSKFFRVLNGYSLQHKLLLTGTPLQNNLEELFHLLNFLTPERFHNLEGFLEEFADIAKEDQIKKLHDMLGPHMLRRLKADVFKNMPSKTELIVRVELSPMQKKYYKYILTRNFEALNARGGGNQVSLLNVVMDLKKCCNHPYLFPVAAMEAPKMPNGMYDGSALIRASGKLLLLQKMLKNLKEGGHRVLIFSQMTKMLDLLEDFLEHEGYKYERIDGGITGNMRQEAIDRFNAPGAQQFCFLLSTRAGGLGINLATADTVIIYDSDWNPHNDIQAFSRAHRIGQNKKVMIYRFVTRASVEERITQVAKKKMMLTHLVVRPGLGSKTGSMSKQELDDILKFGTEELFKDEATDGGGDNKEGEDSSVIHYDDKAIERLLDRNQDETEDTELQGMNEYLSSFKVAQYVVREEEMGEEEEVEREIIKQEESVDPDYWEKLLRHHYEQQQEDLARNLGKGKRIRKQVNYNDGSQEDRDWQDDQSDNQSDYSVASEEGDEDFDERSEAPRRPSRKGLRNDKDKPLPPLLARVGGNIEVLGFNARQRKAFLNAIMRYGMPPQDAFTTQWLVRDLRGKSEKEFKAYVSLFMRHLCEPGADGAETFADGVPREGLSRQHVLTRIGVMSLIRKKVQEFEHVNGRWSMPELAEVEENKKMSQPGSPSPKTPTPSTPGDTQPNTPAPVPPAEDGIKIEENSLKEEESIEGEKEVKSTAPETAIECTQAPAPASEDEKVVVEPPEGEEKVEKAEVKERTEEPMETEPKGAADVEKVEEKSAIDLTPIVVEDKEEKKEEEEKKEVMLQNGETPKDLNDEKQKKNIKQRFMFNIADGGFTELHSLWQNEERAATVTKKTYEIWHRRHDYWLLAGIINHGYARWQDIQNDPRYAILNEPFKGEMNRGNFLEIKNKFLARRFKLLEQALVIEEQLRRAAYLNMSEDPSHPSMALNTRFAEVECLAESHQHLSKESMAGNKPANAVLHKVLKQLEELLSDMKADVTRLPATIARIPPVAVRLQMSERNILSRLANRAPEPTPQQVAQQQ

Biological target: epitope-tagged FBXW7 (bait of the IP-MS) (human) (UniProt Q969H0)
Experiment: affinity purification with mass spectrometry; epitope-tagged FBXW7 immunoprecipitated, coprecipitating proteins identified by mass spectrometry; cells not given

binding: binds
Substance: CHD4 (found in the IP-MS of FBXW7) (from UniProt Q14839 1-1912)

Results are given in words; binding and its absence hold for the method and conditions named. Binding seen in cells or lysates may run through a third protein. These calls come from enrichment with a bait or labelling near it, and not all partners need be listed.
